The source of these data is PubChem BioAssay AID1487 (National Center for Advancing Translational Sciences (NCATS), 2009).

Each structure is given as a SMILES string. Several values for one entry are separate records, joined by “and”; a condition that tells them apart may be missing. Identical values can stand only once. Some of the results follow. Shown are side measurements of this screen, not its main read-out; they come without a call. Most of these compounds were active or inconclusive in the main read-out, so they are no random draw. Potencies come from curve fits of mixed quality, noted in brackets.

The experiment is described as follows: qHTS Assay for Modulators of Lamin A Splicing. The settings on record: HeLa LMNA splicing GFP/RFP minigene ratio, 48 h. The essentials:
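S3 HeLa cells stably expressing lamin A-EGFP splicing minigene plus DsRed2, 600 cells/well, 48 h compound exposure at 37C. Laser-scanning cytometry; analysed as GFP (500-530 nm)/RFP (575-640 nm) total intensity ratio; 0.5% DMSO vehicle.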
On the technique in general: Quantitative high-throughput screening tests each substance at several concentrations.

Setting [1] is: measured here: GFP splicing reporter channel.
[2] abbreviates: measured here: RFP viability control channel.

Consider `Cc1cccc(Nc2nc(N)c([N+](=O)[O-])c(N3CCOCC3)n2)c1`, for which the concentration at half-maximal activity (AC50) (as a rule, the concentration at which the activity in the assay is half-maximal) under setting [1] was 2.24 µM [rising, single point].

In the case of `Cc1ccc(NC(=O)c2nn(C)c3c2CS(=O)(=O)c2ccccc2-3)c(Cl)c1`, the AC50 is 0.0316 µM [falling, full curve, poor fit] under setting [1] and 0.0126 µM [falling, full curve, poor fit] under setting [2].

For the compound `O=[N+]([O-])c1cc(S(=O)(=O)N2CCCCCC2)ccc1F`, under setting [2], the AC50 is 11.2 µM [rising, partial curve].

In the case of `Cc1ccc(NC(=S)Nc2cccc3cnccc23)c(C)c1`, the concentration at half-maximal activity (AC50) under setting [1] was 0.00316 µM [falling, full curve, poor fit].

In the case of `CCOc1ccc(-c2nnn(CC#N)n2)cc1OC`, the AC50 under setting [2] is 25.1 µM [rising, single point].

Regarding `C#CC[N+](C)(C)CCCCCCCCC`, the AC50 was 35.5 µM [falling, single point] under setting [1] and 35.5 µM [falling, single point] under setting [2].

In the case of `COc1cccc(N2CC(O)=C(c3nc4ccccc4c(=O)[nH]3)C2=N)c1`, the AC50 under setting [2] was 2.82 µM [rising, partial curve].

Take `CCCCCCCCCc1nc2sc3c(c2c(=O)n1NC(=O)c1ccc([N+](=O)[O-])cc1)CC(C)(C)OC3`: the AC50 under setting [2] was 3.98 µM [rising, full curve].

In the case of `CCCOc1c(OC)cccc1C1CC(=O)Nc2cc3c(cc21)OCO3` (stereo not given), the AC50 is 15.8 µM [falling, single point] under setting [1] and 17.8 µM [falling, single point] under setting [2].

`Oc1c(C(c2ccccc2)N2CCC3(CC2)OCCO3)sc2nc(-c3ccco3)nn12` (stereo not given): the AC50 is, setting by setting: under setting [1], 0.0126 µM [falling, full curve, poor fit]; under setting [2], 0.00316 µM [falling, full curve, poor fit].

For `COc1cc(CN(C(=O)c2ccco2)c2ccc(C)cc2)ccc1O`, the AC50 under setting [2] is 35.5 µM [rising, single point].

On to `CN(CC(=O)NC(=O)NCc1ccccc1)Cc1cccc(Cl)c1Cl`, for which the AC50 under setting [1] was 11.2 µM [rising, partial curve, poor fit] and the AC50 under setting [2] is 12.6 µM [rising, partial curve].

On to `CN1CCN(C(=S)Nc2ccc(Cl)cc2)CC1`, for which, under setting [2], the AC50 was 3.98 µM [rising, full curve, poor fit].

Turning to `CCCN(CC(=O)Nc1ccc(C)cc1Br)CC(=O)Nc1ccc(F)c(F)c1F`, under setting [2], the AC50 was 17.8 µM [rising, partial curve, poor fit].

Consider `CC1(c2ccc(Cl)cc2Cl)OCC(Cn2ccnc2)O1` (stereo not given), for which, under setting [2], the concentration at half-maximal activity (AC50) is 22.4 µM [rising, single point].

For the compound `COc1nc(Nc2cccc(C(F)(F)F)c2)nc(OC)n1`, the AC50 is, setting by setting: under setting [1], 22.4 µM [rising, single point]; under setting [2], 20 µM [rising, single point].

`Cc1ccccc1NC(=S)c1nc2ccccc2[nH]1`: the AC50 under setting [2] is 17.8 µM [rising, single point].

In the case of `COc1ccc(OC)c(S(=O)(=O)Nc2cc3c(cc2C)n(C)c(=O)c(=O)n3C)c1`, the AC50 under setting [1] is 0.355 µM [rising, partial curve].

For the compound `Cc1ccc(NC(=O)CN(C)S(=O)(=O)c2ccc(Br)s2)cc1F`, the half-maximal activity concentration (AC50) under setting [2] was 25.1 µM [rising, single point].

As for `C/C(=N\NC(=O)Cn1c(C)nc2ccccc21)c1cccs1`, the AC50 runs as follows: under setting [1], 5.62 µM [rising, partial curve, poor fit]; under setting [2], 14.1 µM [rising, partial curve].

Regarding `O=S(=O)(c1ccc(Br)cc1)N1CCN=C1SCc1cccnc1`, the AC50 under setting [1] was 0.282 µM [rising, partial curve, poor fit].

Consider `CCOC(=O)c1sc(NC(=O)CSc2n[nH]c(-c3ccncc3)n2)c(C#N)c1C`, for which the concentration at half-maximal activity (AC50) under setting [2] was 3.55 µM [rising, full curve].

On to `CC(C)CN=C(NS(=O)(=O)c1ccccc1)C(Cl)(Cl)Cl`, for which the AC50 runs as follows: under setting [1], 35.5 µM [falling, single point]; under setting [2], 2 µM [rising, single point].

As to `COc1ccc(P(=O)(COc2ccc([N+](=O)[O-])cc2)c2ccc(OC)cc2)cc1`, the half-maximal activity concentration (AC50) is, setting by setting: under setting [1], 0.316 µM [rising, partial curve]; under setting [2], 0.178 µM [rising, full curve, poor fit].

On to `Oc1ccc(N=Cc2ccc(-c3cccs3)s2)cc1`, for which, under setting [1], the AC50 was 35.5 µM [rising, single point].

As for `Cc1ccc(NC(=O)NCc2ccc3c(c2)CCN3C(=O)c2ccccc2)c(Cl)c1`, the AC50 under setting [1] was 11.2 µM [falling, partial curve, poor fit].

Turning to `COc1ccc(-n2cc(CNCCc3cscn3)c(-c3ccccc3Cl)n2)cc1`, the AC50 under setting [1] was 11.2 µM [falling, partial curve, poor fit].

On to `CN(C)CCCn1c(SCCN2C(=O)c3ccccc3C2=O)nc2ccccc2c1=O`, for which the AC50 is 35.5 µM [falling, single point] under setting [1] and 35.5 µM [falling, single point] under setting [2].

`CCC(=O)c1ccc(N2CCN(C(=O)c3cc([N+](=O)[O-])ccc3F)CC2)c(F)c1`: the AC50 under setting [2] was 0.0158 µM [falling, full curve, poor fit].

As for `Cc1ccccc1NS(=O)(=O)c1cc(C(=O)N2CCc3ccccc3C2)ccc1C`, the AC50 under setting [1] was 11.2 µM [rising, single point] and the half-maximal activity concentration (AC50) under setting [2] is 15.8 µM [rising, single point].

With `Cc1ccc(Nc2ncc3c(n2)CC(c2ccco2)CC3=O)c(C)c1` (stereo not given), the half-maximal activity concentration (AC50) under setting [2] was 0.794 µM [falling, full curve, poor fit].

With `CCC1C/C(=C/c2ccco2)C(=O)/C(=C/c2ccco2)C1` (stereo not given), the AC50 under setting [2] was 15.8 µM [rising, partial curve].

Regarding `CN(Cc1ccccc1)S(=O)(=O)c1ccc(NS(=O)(=O)Cc2ccccc2)cc1`, under setting [2], the AC50 is 35.5 µM [rising, single point].

For `O=C(CSc1nnc(-c2ccc(O)cc2)n1Cc1ccco1)N1CCc2ccccc2C1`, the AC50 under setting [1] is 35.5 µM [rising, single point].

As to `CC(=O)C1=C(c2ccc(Br)cc2)C(=O)c2ccccc2C1=O`, the AC50 under setting [1] is 35.5 µM [falling, single point] and the AC50 under setting [2] is 31.6 µM [falling, single point].

Turning to `N#CC1=C(N)SC(N)=C(C#N)C1CCC1CCCCC1`, the AC50 was 3.16 µM [rising, partial curve] under setting [1] and 2.82 µM [rising, single point] under setting [2].

In the case of `C=C(C)[C@H]1CC[C@]2(CO)CC[C@]3(C)[C@@H](CC[C@H]4[C@@]5(C)CC[C@@H](O)C(C)(C)[C@@H]5CC[C@@]43C)[C@H]12`, the AC50 under setting [1] was 1.26 µM [rising, single point] and the AC50 under setting [2] is 14.1 µM [falling, single point].

For `CC(=O)Nc1ccc(C(=S)NCc2ccco2)cc1`, the AC50 under setting [2] is 15.8 µM [rising, single point].

With `CCCCOc1ccc(CNC(=O)CN2CCSc3ccccc32)cc1`, the AC50 under setting [2] is 28.2 µM [rising, single point].

Take `c1cncc(-c2noc(-c3ccco3)n2)c1`: the AC50 under setting [1] is 15.8 µM [rising, partial curve, poor fit].

For the compound `CCCCCCSC1=C(C#N)C(=O)NC2(CCCCC2)S1`, under setting [1], the concentration at half-maximal activity (AC50) was 0.00891 µM [falling, full curve, poor fit].

Turning to `NC/C=C\C(=O)O`, the half-maximal activity concentration (AC50) under setting [2] was 6.31 µM [falling, single point].

For `Oc1cccc(/C=N/Nc2cc(N3CCOCC3)nc(N3CCOCC3)n2)c1`, the half-maximal activity concentration (AC50) under setting [2] is 12.6 µM [rising, partial curve].

Take `CCOC(=O)C1CCC(CN(Cc2ccccc2)S(=O)(=O)c2ccc(Cl)cc2)CC1` (stereo not given): under setting [2], the AC50 was 1.41 µM [falling, partial curve].

Turning to `CC1(C)CC(=O)C=C(NNC(=O)c2ccccc2)C1`, the AC50 under setting [2] is 0.158 µM [falling, full curve, poor fit].

For the compound `CN(c1ccc(C(=O)NCCC2=CCCCC2)cc1)S(C)(=O)=O`, the AC50 by setting is: under setting [1], 6.31 µM [rising, partial curve]; under setting [2], 12.6 µM [rising, partial curve, poor fit].

With `CC1=C(C(=O)OCc2ccccc2)C(c2ccc(Cl)cc2Cl)NC(=O)N1CCCCCC(=O)O` (stereo not given), the concentration at half-maximal activity (AC50) by setting is: under setting [1], 35.5 µM [rising, single point]; under setting [2], 28.2 µM [rising, single point].

Regarding `COC/C=C/C1=CC2=CC(=O)C(C)(OC(=O)c3cnc4ccccc4n3)C(=O)C2=CN1CCOC` (stereo not given), under setting [2], the AC50 was 3.55 µM [rising, single point].

Take `COC(=O)c1c(C(=O)OC)c(-c2ccc(C)cc2)n2c1CCC2`: the AC50 under setting [2] is 35.5 µM [rising, single point].

Take `O=C(NCC(c1ccco1)N1CCN(c2ccccc2)CC1)OCc1ccccc1` (stereo not given): the AC50 under setting [2] was 12.6 µM [rising, partial curve].

In the case of `O=C(CSc1ncccn1)NC(=O)Nc1ccc2c(c1)OCCO2`, under setting [2], the AC50 was 0.00501 µM [falling, full curve, poor fit].

Regarding `NC(N)=NC(=O)Cc1c(Cl)cccc1Cl`, the AC50 runs as follows: under setting [1], 447 nM [falling, partial curve] and 35.5 µM [falling, single point]; under setting [2], 10 µM [rising, single point] and 355 nM [rising, partial curve, poor fit].

On to `Cc1ccc(CCc2nnc(SCC(=O)Nc3cc(Cl)ccc3Cl)n2-c2ccccc2)o1`, for which, under setting [2], the AC50 is 7.94 µM [rising, partial curve, poor fit].

As for `COc1ccc(N2CCN(C(CNC(=O)OCc3ccccc3)c3ccco3)CC2)cc1` (stereo not given), the AC50 reads like this: under setting [1], 11.2 µM [rising, partial curve, poor fit]; under setting [2], 15.8 µM [rising, partial curve].

For the compound `c1ccc(C2=Nc3cccc4cccc(c34)N2)cc1`, the AC50 under setting [2] is 3.55 µM [rising, partial curve].

Turning to `CCOc1ccc2nc(SC3CC(=O)N(c4ccccc4)C3=O)sc2c1` (stereo not given), the AC50 is 17.8 µM [falling, single point] under setting [1] and 35.5 µM [falling, single point] under setting [2].
